Data on one molecule can be found in the supplement of paper PMC8728848.

Some of the results follow.

Common to all, as to assay: glycan array binding signal (z-score within array); higher = stronger binding
Conditions in all cases: glycan notation: IUPAC condensed, linker removed; mutation: Y54A

Assay [1] has as its target Gal(b1-4)GlcNAc(b1-2)Man(a1-6)[GlcNAc(b1-2)Man(a1-3)]Man(b1-4)GlcNAc(b1-4)GlcNAc. A digest of the protocol: (§1)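 Arrays were curated from the Consortium for Functional Glycomics database, 3228 in total, and kept only where the protein sequence was available. Binding is expressed as a within-array Z-score. This score was averaged across arrays of the same protein sequence at different concentrations or buffers and across linkers, and negative values can be read as non-binding.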

The target in assay [2] is Gal(b1-4)GlcNAc(b1-2)Man(a1-6)[Man(a1-3)]Man(b1-4)GlcNAc(b1-4)GlcNAc. The method, boiled down:
as §1

Assay [3] deals with Gal(b1-4)GlcNAc(b1-2)[Gal(b1-4)GlcNAc(b1-4)]Man(a1-3)[Gal(b1-4)GlcNAc(b1-2)Man(a1-6)]Man(b1-4)GlcNAc(b1-4)GlcNAc. The method, boiled down:
as §1

For assay [4], the target named is Gal(b1-4)GlcNAc(b1-2)[Gal(b1-4)GlcNAc(b1-4)]Man(a1-3)[Gal(b1-4)GlcNAc(b1-2)[Gal(b1-4)GlcNAc(b1-6)]Man(a1-6)]Man(b1-4)GlcNAc(b1-4)GlcNAc. A digest of the protocol:
as §1

In assay [5] the target is Gal(b1-4)GlcNAc(b1-2)[Gal(b1-4)GlcNAc(b1-4)]Man(a1-3)[GlcNAc(b1-4)][Gal(b1-4)GlcNAc(b1-2)Man(a1-6)]Man(b1-4)GlcNAc(b1-4)GlcNAc. A digest of the protocol:
as §1

The target in assay [6] is Gal(b1-4)GlcNAc(b1-2)[Gal(b1-4)GlcNAc(b1-4)]Man(a1-3)[GlcNAc(b1-4)][Gal(b1-4)GlcNAc(b1-2)[Gal(b1-4)GlcNAc(b1-6)]Man(a1-6)]Man(b1-4)GlcNAc(b1-4)GlcNAc. The method, boiled down:
as §1

Assay [7] concerns the target Gal(b1-4)GlcNAc(b1-2)[Gal(b1-4)GlcNAc(b1-6)]Man(a1-6)[Gal(b1-4)GlcNAc(b1-2)Man(a1-3)]Man(b1-4)GlcNAc(b1-4)GlcNAc. The method, boiled down: as §1
For assay [8], the target named is Gal(b1-4)GlcNAc(b1-2)[Gal(b1-4)GlcNAc(b1-6)]Man(a1-6)[Gal(b1-4)GlcNAc(b1-2)Man(a1-3)]Man(b1-4)GlcNAc(b1-4)[Fuc(a1-6)]GlcNAc. The method, boiled down: as §1
Assay [9] has as its target Gal(b1-4)GlcNAc(b1-2)[Gal(b1-4)GlcNAc(b1-6)]Man(a1-6)[GlcNAc(b1-4)][Gal(b1-4)GlcNAc(b1-2)Man(a1-3)]Man(b1-4)GlcNAc(b1-4)GlcNAc. The method, boiled down:
as §1

For assay [10], the target named is Gal(b1-4)GlcNAc(b1-2)[Gal(b1-4)GlcNAc(b1-6)]Man(a1-6)[GlcNAc(b1-4)][Gal(b1-4)GlcNAc(b1-2)[Gal(b1-4)GlcNAc(b1-4)]Man(a1-3)]Man(b1-4)GlcNAc(b1-4)[Fuc(a1-6)]GlcNAc. A digest of the protocol: as §1
Assay [11] has as its target Gal(b1-4)GlcNAc(b1-3)Gal(b1-3)GalNAc. A digest of the protocol:
as §1

The target of assay [12] is Gal(b1-4)GlcNAc(b1-3)Gal(b1-3)GlcNAc. The method, boiled down:
as §1

The target in assay [13] is Gal(b1-4)GlcNAc(b1-3)Gal(b1-4)Glc. A digest of the protocol: as §1
In assay [14] the target is Gal(b1-4)GlcNAc(b1-3)Gal(b1-4)GlcNAc. The method, boiled down:
as §1

The target in assay [15] is Gal(b1-4)GlcNAc(b1-3)Gal(b1-4)GlcNAc(b1-2)Man(a1-3)[Gal(b1-4)GlcNAc(b1-3)Gal(b1-4)GlcNAc(b1-2)Man(a1-6)]Man(b1-4)GlcNAc(b1-4)GlcNAc. A digest of the protocol:
as §1

Assay [16] has as its target Gal(b1-4)GlcNAc(b1-3)Gal(b1-4)GlcNAc(b1-2)Man(a1-3)[Gal(b1-4)GlcNAc(b1-3)Gal(b1-4)GlcNAc(b1-2)Man(a1-6)]Man(b1-4)GlcNAc(b1-4)[Fuc(a1-6)]GlcNAc. The method, boiled down:
as §1

Assay [17] has as its target Gal(b1-4)GlcNAc(b1-3)Gal(b1-4)GlcNAc(b1-2)[Gal(b1-4)GlcNAc(b1-3)Gal(b1-4)GlcNAc(b1-6)]Man(a1-6)[Gal(b1-4)GlcNAc(b1-3)Gal(b1-4)GlcNAc(b1-2)Man(a1-3)]Man(b1-4)GlcNAc(b1-4)GlcNAc. A digest of the protocol:
as §1

Assay [18] concerns the target Gal(b1-4)GlcNAc(b1-3)Gal(b1-4)GlcNAc(b1-2)[Gal(b1-4)GlcNAc(b1-3)Gal(b1-4)GlcNAc(b1-6)]Man(a1-6)[Gal(b1-4)GlcNAc(b1-3)Gal(b1-4)GlcNAc(b1-2)Man(a1-3)]Man(b1-4)GlcNAc(b1-4)[Fuc(a1-6)]GlcNAc. The method, boiled down: as §1
Assay [19] concerns the target Gal(b1-4)GlcNAc(b1-3)Gal(b1-4)GlcNAc(b1-3)Gal(b1-4)GlcNAc. A digest of the protocol: as §1
Assay [20] deals with Gal(b1-4)GlcNAc(b1-3)Gal(b1-4)GlcNAc(b1-3)Gal(b1-4)GlcNAc(b1-2)Man(a1-3)[Gal(b1-4)GlcNAc(b1-3)Gal(b1-4)GlcNAc(b1-3)Gal(b1-4)GlcNAc(b1-2)Man(a1-6)]Man(b1-4)GlcNAc(b1-4)GlcNAc. A digest of the protocol:
as §1

The target in assay [21] is Gal(b1-4)GlcNAc(b1-3)Gal(b1-4)GlcNAc(b1-3)Gal(b1-4)GlcNAc(b1-2)Man(a1-3)[Gal(b1-4)GlcNAc(b1-3)Gal(b1-4)GlcNAc(b1-3)Gal(b1-4)GlcNAc(b1-2)Man(a1-6)]Man(b1-4)GlcNAc(b1-4)[Fuc(a1-6)]GlcNAc. A digest of the protocol:
as §1

Assay [22] addresses Gal(b1-4)GlcNAc(b1-3)Gal(b1-4)GlcNAc(b1-3)Gal(b1-4)GlcNAc(b1-2)[Gal(b1-4)GlcNAc(b1-3)Gal(b1-4)GlcNAc(b1-3)Gal(b1-4)GlcNAc(b1-6)]Man(a1-6)[Gal(b1-4)GlcNAc(b1-3)Gal(b1-4)GlcNAc(b1-3)Gal(b1-4)GlcNAc(b1-2)Man(a1-3)]Man(b1-4)GlcNAc(b1-4)[Fuc(a1-6)]GlcNAc. A digest of the protocol:
as §1

B1: CBP21 (Serratia marcescens), O83009 (protein)
chain: MNKTSRTLLSLGLLSAAMFGVSQQANAHGYVESPASRAYQCKLQLNTQCGSVQAEPQSVEGLKGFPQAGPADGHIASADKSTFFELDQQTPTRWNKLNLKTGPNSFTWKLTARHSTTSWRYFITKPNWDASQPLTRASFDLTPFCQFNDGGAIPAAQVTHQCNIPADRSGSHVILAVWDIADTANAFYQAIDVNLSK
As for B1, the “glycan array binding signal (z-score)” value in [1] is -0.884; in assay [2], -0.719; in [3], -0.44; in [4], 0.113; in assay [5] it was -0.281; in assay [6] it was -0.785. In addition, the “glycan array binding signal (z-score)” value in assay [7] is -0.937; in assay [8] it was -0.513; in [9], -0.473; in assay [10], -0.57; in assay [11] it was -0.731; in [12], -0.325. Besides, the “glycan array binding signal (z-score)” value is 0.422 in [13]; -0.635 in assay [14]; 0.308 in assay [15]; -0.38 in assay [16]; -0.082 in assay [17]; 1.02 in assay [18]. Further, the “glycan array binding signal (z-score)” value in [19] was -0.11; in assay [20], 0.396; in [21], -0.892; in assay [22], 0.063.
